In the supplement of paper PMC6078165:
The reference is the same well before dosing, and untreated signal decays as well.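 Fibroblast labels denote human fibroblasts, mainly primary ones from uterus (C12385, HUF), lung (H6013), bone (Hs27A), adrenal (HADF) and skin (WS1), plus mammary HMF and breast cancer-associated Hs343T. Cancer cells are basal-like or mesenchymal-like triple-negative breast cancer lines. A hit is a response shift exceeding 3x replicate standard deviation. The tissue of the other fibroblasts is not given here.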

System: Hs578T
Assay: relative JC-1 red fluorescence (viability) vs pre-drug, coculture with fibroblast (fraction); higher = more viable cancer cells
Procedure: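 JC-1 labelled TNBC cells cocultured 1:1 (1,500 cells each) with CellTrace Violet stained primary or stromal fibroblasts in 384-well plates in FluoroBrite medium, treated with one of 42 anticancer drugs at 0.1, 1, 10 or 100 uM. JC-1 red fluorescence (mitochondrial integrity in cancer cells only) was read by plate reader every 8 h for 72 h. Values are normalised to each well's pre-drug value. The stock of one drug was tenfold lower, so its dose labels may be too high.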

C=C1C[C@@H]2[C@H](CC[C@]3(C)C(=O)CC[C@@H]23)[C@@]2(C)C=CC(=O)C=C12 [Exemestane]
relative JC-1 red fluorescence
Conditions | 8 h | 16 h | 24 h | 32 h | 40 h | 48 h | 56 h | 64 h | 72 h
10 µM | 0.9251 | 0.82 | 0.776 | 0.749 | 0.707 | 0.669 | 0.651 | 0.604 | 0.586
100 µM | 0.901 | 0.868 | 0.875 | 0.862 | 0.825 | 0.786 | 0.796 | 0.76 | 0.755

relative JC-1 red fluorescence
Conditions | 8 h | 16 h | 24 h | 32 h | 40 h | 48 h | 56 h | 64 h | 72 h
10 µM, coculture fibroblast: C12385 | 0.8619 | 0.78753 | 0.742 | 0.668 | 0.602 | 0.567 | 0.534 | 0.505 | 0.484
10 µM, coculture fibroblast: H6013 | 0.921 | 0.862 | 0.817 | 0.783 | 0.743 | 0.728 | 0.707 | 0.698 | 0.667
10 µM, coculture fibroblast: H6019 | 0.795 | 0.719 | 0.731 | 0.661 | 0.637 | 0.62 | 0.589 | 0.571 | 0.544
10 µM, coculture fibroblast: H6076 | 0.9453 | 0.861 | 0.821 | 0.7915 | 0.752 | 0.7395 | 0.713 | 0.702 | 0.6864
10 µM, coculture fibroblast: H6231 | 0.9269 | 0.871 | 0.798 | 0.766 | 0.697 | 0.667 | 0.609 | 0.581 | 0.557
10 µM, coculture fibroblast: HADF | 0.9252 | 0.885 | 0.846 | 0.8051 | 0.7772 | 0.74845 | 0.7068 | 0.69 | 0.6474
10 µM, coculture fibroblast: HCFa | 0.923 | 0.907 | 0.831 | 0.797 | 0.739 | 0.719 | 0.679 | 0.661 | 0.6165
10 µM, coculture fibroblast: HCPF | 0.9323 | 0.85 | 0.801 | 0.771 | 0.708 | 0.681 | 0.648 | 0.603 | 0.566
10 µM, coculture fibroblast: HHSteC | 0.935 | 0.8442 | 0.783 | 0.735 | 0.672 | 0.626 | 0.588 | 0.541 | 0.49
10 µM, coculture fibroblast: HMF | 0.882 | 0.805 | 0.757 | 0.7366 | 0.6818 | 0.6596 | 0.6134 | 0.586 | 0.559
10 µM, coculture fibroblast: HPFa | 0.949 | 0.909 | 0.796 | 0.721 | 0.669 | 0.627 | 0.574 | 0.536 | 0.469
10 µM, coculture fibroblast: HUF | 0.895 | 0.785 | 0.769 | 0.672 | 0.615 | 0.574 | 0.531 | 0.508 | 0.486
10 µM, coculture fibroblast: Hs27A | 0.835 | 0.883 | 0.825 | 0.749 | 0.805 | 0.827 | 0.851 | 0.829 | 0.774
10 µM, coculture fibroblast: Hs343T | 0.9211 | 0.833 | 0.786 | 0.76 | 0.687 | 0.655 | 0.6 | 0.568 | 0.537
10 µM, coculture fibroblast: WS1 | 0.825 | 0.748 | 0.706 | 0.625 | 0.575 | 0.555 | 0.517 | 0.495 | 0.479
100 µM, coculture fibroblast: C12385 | 0.827 | 0.7594 | 0.729 | 0.684 | 0.639 | 0.608 | 0.576 | 0.578 | 0.567
100 µM, coculture fibroblast: H6013 | 0.9165 | 0.869 | 0.83 | 0.758 | 0.682 | 0.634 | 0.588 | 0.572 | 0.536
100 µM, coculture fibroblast: H6019 | 0.789 | 0.758 | 0.759 | 0.69 | 0.667 | 0.647 | 0.628 | 0.625 | 0.607
100 µM, coculture fibroblast: H6076 | 0.906 | 0.8569 | 0.8451 | 0.834 | 0.776 | 0.779 | 0.769 | 0.7639 | 0.7794
100 µM, coculture fibroblast: H6231 | 0.899 | 0.848 | 0.847 | 0.825 | 0.761 | 0.741 | 0.705 | 0.681 | 0.668
100 µM, coculture fibroblast: HADF | 0.967 | 0.951 | 0.94 | 0.897 | 0.839 | 0.795 | 0.738 | 0.731 | 0.701
100 µM, coculture fibroblast: HCFa | 0.883 | 0.8564 | 0.8159 | 0.7761 | 0.7054 | 0.6848 | 0.6556 | 0.6519 | 0.6133
100 µM, coculture fibroblast: HCPF | 0.9226 | 0.829 | 0.748 | 0.702 | 0.61 | 0.578 | 0.553 | 0.506 | 0.487
100 µM, coculture fibroblast: HHSteC | 0.939 | 0.896 | 0.881 | 0.84 | 0.789 | 0.757 | 0.735 | 0.726 | 0.693
100 µM, coculture fibroblast: HMF | 0.913 | 0.843 | 0.785 | 0.741 | 0.659 | 0.623 | 0.588 | 0.556 | 0.54
100 µM, coculture fibroblast: HPFa | 0.961 | 0.906 | 0.841 | 0.7684 | 0.715 | 0.671 | 0.625 | 0.598 | 0.526
100 µM, coculture fibroblast: HUF | 0.874 | 0.779 | 0.7988 | 0.714 | 0.663 | 0.626 | 0.593 | 0.578 | 0.571
100 µM, coculture fibroblast: Hs27A | 0.936 | 0.912 | 0.896 | 0.846 | 0.782 | 0.772 | 0.733 | 0.732 | 0.688
100 µM, coculture fibroblast: Hs343T | 0.942 | 0.866 | 0.828 | 0.8 | 0.718 | 0.682 | 0.625 | 0.597 | 0.585
100 µM, coculture fibroblast: WS1 | 0.797 | 0.73 | 0.713 | 0.639 | 0.598 | 0.563 | 0.536 | 0.527 | 0.518
